# Measured values published in patent publication US11718646B2, “Bovine adrenal medulla peptide 8-22 compounds and methods of use thereof for treating pain” (Tufts Medical Center, priority 2015, dated 2023).
# Protein sequences, listed by entry. Tags and fused reporters are not part of them.
# UniProt Q96LB2, whole entry A46T: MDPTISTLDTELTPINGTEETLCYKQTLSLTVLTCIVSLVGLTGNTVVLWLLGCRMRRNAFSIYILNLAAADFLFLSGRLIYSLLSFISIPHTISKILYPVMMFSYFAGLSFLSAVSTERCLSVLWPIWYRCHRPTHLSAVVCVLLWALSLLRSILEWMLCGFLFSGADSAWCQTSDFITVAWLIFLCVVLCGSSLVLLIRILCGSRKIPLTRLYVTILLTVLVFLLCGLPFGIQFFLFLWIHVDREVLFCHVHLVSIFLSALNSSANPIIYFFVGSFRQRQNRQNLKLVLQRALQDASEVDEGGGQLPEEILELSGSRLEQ
# UniProt Q96LB2, whole entry R55L: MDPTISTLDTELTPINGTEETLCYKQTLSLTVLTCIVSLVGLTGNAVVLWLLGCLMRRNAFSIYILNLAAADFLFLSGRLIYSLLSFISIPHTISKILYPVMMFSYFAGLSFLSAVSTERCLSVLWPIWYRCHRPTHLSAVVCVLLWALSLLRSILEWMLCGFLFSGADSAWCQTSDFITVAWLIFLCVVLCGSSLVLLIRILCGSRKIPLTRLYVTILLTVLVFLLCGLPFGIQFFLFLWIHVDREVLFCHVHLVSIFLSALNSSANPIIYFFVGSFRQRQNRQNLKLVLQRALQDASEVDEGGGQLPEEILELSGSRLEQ
# UniProt Q96LB2, whole entry I36V: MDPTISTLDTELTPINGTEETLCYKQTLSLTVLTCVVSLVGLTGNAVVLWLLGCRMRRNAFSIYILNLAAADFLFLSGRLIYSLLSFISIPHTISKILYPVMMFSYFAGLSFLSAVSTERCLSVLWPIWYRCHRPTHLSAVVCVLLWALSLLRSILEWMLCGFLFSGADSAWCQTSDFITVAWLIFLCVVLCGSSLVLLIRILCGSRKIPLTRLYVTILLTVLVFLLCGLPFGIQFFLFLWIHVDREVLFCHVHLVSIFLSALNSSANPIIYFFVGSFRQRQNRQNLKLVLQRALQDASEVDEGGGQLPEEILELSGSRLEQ
# UniProt Q96LB2, whole entry H137R: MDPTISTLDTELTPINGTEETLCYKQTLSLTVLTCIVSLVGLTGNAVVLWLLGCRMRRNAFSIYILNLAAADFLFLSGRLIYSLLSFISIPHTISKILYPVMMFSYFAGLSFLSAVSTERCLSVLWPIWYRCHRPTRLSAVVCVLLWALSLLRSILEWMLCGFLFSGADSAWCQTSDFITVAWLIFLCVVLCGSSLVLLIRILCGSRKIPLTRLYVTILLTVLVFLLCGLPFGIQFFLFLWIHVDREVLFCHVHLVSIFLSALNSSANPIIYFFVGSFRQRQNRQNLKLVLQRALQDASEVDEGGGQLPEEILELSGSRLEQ
# UniProt Q96LB2, whole entry F273L: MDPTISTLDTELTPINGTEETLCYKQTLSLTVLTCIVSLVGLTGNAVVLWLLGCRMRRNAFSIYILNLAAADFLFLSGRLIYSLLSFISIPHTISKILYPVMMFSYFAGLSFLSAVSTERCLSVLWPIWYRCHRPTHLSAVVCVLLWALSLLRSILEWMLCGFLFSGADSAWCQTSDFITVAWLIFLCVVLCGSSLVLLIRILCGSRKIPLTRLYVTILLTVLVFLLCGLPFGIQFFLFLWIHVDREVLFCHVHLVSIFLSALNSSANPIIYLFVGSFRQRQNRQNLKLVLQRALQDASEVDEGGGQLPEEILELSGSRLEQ
# UniProt Q96LB2, whole entry H133R: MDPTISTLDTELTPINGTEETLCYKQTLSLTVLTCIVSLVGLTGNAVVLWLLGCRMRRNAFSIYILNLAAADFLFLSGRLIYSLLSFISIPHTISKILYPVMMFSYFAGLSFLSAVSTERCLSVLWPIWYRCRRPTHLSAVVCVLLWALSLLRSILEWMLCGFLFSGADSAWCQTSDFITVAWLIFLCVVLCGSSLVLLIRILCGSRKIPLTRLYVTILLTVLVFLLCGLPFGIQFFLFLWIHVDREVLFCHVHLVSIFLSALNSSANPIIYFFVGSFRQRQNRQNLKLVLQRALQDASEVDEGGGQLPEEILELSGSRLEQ
# UniProt Q96LB2, whole entry R131S: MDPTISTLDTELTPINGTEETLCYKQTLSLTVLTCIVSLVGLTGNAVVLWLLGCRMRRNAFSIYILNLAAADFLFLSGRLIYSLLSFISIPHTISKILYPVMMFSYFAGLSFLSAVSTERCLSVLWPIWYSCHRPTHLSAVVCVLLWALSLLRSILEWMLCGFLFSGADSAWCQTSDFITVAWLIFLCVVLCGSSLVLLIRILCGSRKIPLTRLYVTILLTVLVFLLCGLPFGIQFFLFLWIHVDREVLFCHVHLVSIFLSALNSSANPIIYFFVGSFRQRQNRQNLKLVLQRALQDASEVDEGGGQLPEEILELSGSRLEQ
# Part of at least one peptide drawing is inferred or uncertain, most often the ends. For some assays here: At least one compound was matched to its structure with a doubt left. Marks after values point to notes of the source that are not given here. Residues, ends and D or L forms follow the SMILES beside them. Groups on a side chain read outwards from the residue. *: point of attachment. PEG8 = NCCOCCOCCOCCOCCOCCOCCOCCOCCC(=O)O; Palmitoyl = CCCCCCCCCCCCCCCC(=O)*
# Columns and labels:
# Assay type in all cases: cell-based
# MrgprX1 A46T variant = biological target: T1, MrgprX1 A46T variant (Homo sapiens, UniProt Q96LB2, A46T); assay: SRE-luciferase reporter gene assay in transfected HEK293 cells, A46T variant; conditions: mean ± SEM
# T1 construct: expressed in transfected cells; host or cells: HEK293
# wild type MrgprX1 = biological target: T2, wild type MrgprX1 (Homo sapiens, UniProt Q96LB2); assay: SRE-luciferase reporter gene assay in transfected HEK293 cells, wild type receptor
# T2 construct: expressed in transfected cells; host or cells: HEK293
# Procedure: (§1) A luciferase reporter-based assay was utilized as an index of receptor-mediated signaling (as in Doyle et al., 2013). Human kidney cells (HEK293), grown in Dulbecco's modified Eagle's medium (DMEM) containing 10% FBS, 100 U/ml penicillin, and 100 μg/ml streptomycin were seeded in 96-well plates and grown to 80% confluence. […]
# (§2) Twenty-four hours following transfection, cells were stimulated with soluble ligand for 4 hours (if applicable). After addition of SteadyLite reagent (PerkinElmer, Chicago, Ill.), luciferase activity of the lysate was measured using a TopCount NTX plate reader. Subsequently, 2-nitrophenyl β-D-galactopyranoside (ONPG) was added as a colorimetric substrate to enable quantification of β-galactosidase levels. After incubation with ONPG for 30 minutes, absorbance at 420 nm was measured using a SpectraMax microplate reader (Molecular Devices). […] Data were graphed and statistically analyzed using Graphpad Prism software.
# (§3) GraphPad Prism software version 6.0 (GraphPad Software Inc., La Jolla, Calif.) was used for sigmoidal curve fitting of ligand concentration—response curves, linear regression, and statistical analysis. EC50 and pEC50 values were calculated for each independent experiment as an index of ligand potency. […]
# MrgprX1 R55L variant = biological target: T3, MrgprX1 R55L variant (Homo sapiens, UniProt Q96LB2, R55L); assay: SRE-luciferase reporter gene assay in transfected HEK293 cells, R55L variant; conditions: mean ± SEM
# T3 construct: expressed in transfected cells; host or cells: HEK293
# Procedure: as §1, §2, §3
# (§4) The activity of tethered and lipidated BAMS-22 at each of the seven MrgprX1 variants was assessed (FIGS. 4A-4B). […]
# MrgprX1 I36V variant = biological target: T4, MrgprX1 I36V variant (Homo sapiens, UniProt Q96LB2, I36V); assay: SRE-luciferase reporter gene assay in transfected HEK293 cells, I36V variant; conditions: mean ± SEM
# T4 construct: expressed in transfected cells; host or cells: HEK293
# MrgprX1 H137R variant = biological target: T5, MrgprX1 H137R variant (Homo sapiens, UniProt Q96LB2, H137R); assay: SRE-luciferase reporter gene assay in transfected HEK293 cells, H137R variant; conditions: mean ± SEM
# T5 construct: expressed in transfected cells; host or cells: HEK293
# MrgprX1 F273L variant = biological target: T6, MrgprX1 F273L variant (Homo sapiens, UniProt Q96LB2, F273L); assay: SRE-luciferase reporter gene assay in transfected HEK293 cells, F273L variant; conditions: mean ± SEM
# T6 construct: expressed in transfected cells; host or cells: HEK293
# Procedure: as §1, §2, §3, §4
# MrgprX1 H133R variant = biological target: T7, MrgprX1 H133R variant (Homo sapiens, UniProt Q96LB2, H133R); assay: SRE-luciferase reporter gene assay in transfected HEK293 cells, H133R variant
# T7 construct: expressed in transfected cells; host or cells: HEK293
# Procedure: as §1, §2, §3, §4
# MrgprX1 R131S variant = biological target: T8, MrgprX1 R131S variant (Homo sapiens, UniProt Q96LB2, R131S); assay: SRE-luciferase reporter gene assay in transfected HEK293 cells, R131S variant
# T8 construct: expressed in transfected cells; host or cells: HEK293
# Procedure: as §1, §2, §3
# Signaling of MrgprX1 following stimulation with the endogenous peptide ligand BAM8-22 was measured using a luciferase reporter assay as described herein. […]
smiles,measurement,setting,value
CCCCCCCCCCCCCCCC(=O)NCCOCCOCCOCCOCCOCCOCCOCCOCCC(=O)NCCCC[C@H](NC(=O)CNC(=O)CNC(=O)CNC(=O)[C@H](Cc1ccc(O)cc1)NC(=O)[C@H](CCCNC(=N)N)NC(=O)[C@H](CCCCN)NC(=O)[C@H](CCC(N)=O)NC(=O)[C@H](Cc1ccc(O)cc1)NC(=O)[C@H](CC(=O)O)NC(=O)[C@H](CCSC)NC(=O)[C@H](Cc1c[nH]c2ccccc12)NC(=O)[C@H](Cc1c[nH]c2ccccc12)NC(=O)[C@H](CCC(=O)O)NC(=O)[C@@H]1CCCN1C(=O)[C@H](CCCNC(=N)N)NC(=O)CNC(=O)[C@@H](N)C(C)C)C(=O)O [Lipidated BAM8-22] (H-VGRPEWWMDYQKRYGGGK([PEG8-Palmitoyl])-OH; N-terminus and C-terminus assumed),pEC50,MrgprX1 A46T variant,8.02 ± 0.112
same,potency relative to endogenous BAM8-22 counterpart (s-BAM),"wild type MrgprX1; FIG. 9, luciferase activity after 4 hours",~100 fold
same,pEC50,"wild type MrgprX1; WT MrgprX1, mean ± SEM",7.92 ± 0.065
same,pEC50,MrgprX1 R55L variant,7.99 ± 0.142
same,pEC50,MrgprX1 I36V variant,8.03 ± 0.12
same,pEC50,MrgprX1 H137R variant,8.10 ± 0.089
same,pEC50,MrgprX1 F273L variant,7.92 ± 0.076
same,ligand-mediated signaling compared to wild type receptor,MrgprX1 H133R variant,not observed
same,pEC50,MrgprX1 H133R variant; mean ± SEM,8.06 ± 0.103
same,ligand-mediated signaling compared to wild type receptor,MrgprX1 R131S variant,reduced signaling
same,pEC50,"MrgprX1 R131S variant; mean ± SEM, p < 0.0001 vs. WT",7.24 ± 0.117****
